Some compounds share one wording; it may come from a single statement.
Assay: Evaluation of chelation rate (visual colour change after adding nickel ion)
Format: physicochemical
Conditions: for Chelation rate: time to visually confirm colour development after addition of aqueous nickel solution

| Compound | chelate formation between formazan and transition metal ion (addition of aqueous nickel ion solution, colour tone observed) | Chelation rate |
| --- | --- | --- |
| 2-benzothiazolyl-3-(4-carboxy-2-methoxyphenyl)-5-[4-(2-sulfoethylcarbamoyl)phenyl]-2H-tetrazolium [Comparative Example 5, reference compound] | no chelate was formed | X (the time was longer than one minute) |
| COc1ccc(S(=O)(=O)O)cc1-[n+]1nc(-c2ccc(S(=O)(=O)O)cc2S(=O)(=O)[O-])nn1-c1nc2ccccc2s1 [Comparative Example 1, reference compound] | – | ◯ (the time was one minute or less) |
| COc1ccc2nc(-n3nc(-c4ccc(S(=O)(=O)O)cc4S(=O)(=O)[O-])n[n+]3-c3ccc(OC)c(S(=O)(=O)O)c3)sc2c1 [Example 1] | – | ◯ (the time was one minute or less) |
| COc1ccc2nc(-n3nc(-c4ccc(S(=O)(=O)O)cc4S(=O)(=O)[O-])n[n+]3-c3cc(S(=O)(=O)O)ccc3OC)sc2c1 [Example 2] | – | ◯ (the time was one minute or less) |
| COc1ccc2nc(-n3nc(-c4ccc(S(=O)(=O)O)cc4S(=O)(=O)O)n[n+]3-c3cc(S(=O)(=O)[O-])c([N+](=O)[O-])cc3OC)sc2c1 [Example 3] | – | ◯ (the time was one minute or less) |
| COc1ccc2nc(-n3nc(-c4ccc(S(=O)(=O)[O-])cc4S(=O)(=O)[O-])n[n+]3-c3ccc([N+](=O)[O-])cc3OC)sc2c1.[Na+] [Example 4] | – | ◯ (the time was one minute or less) |
| COc1ccc2nc(-n3nc(-c4ccc(O)cc4S(=O)(=O)[O-])n[n+]3-c3cc(S(=O)(=O)[O-])ccc3OC)sc2c1.[Na+] [Example 5] | – | ◯ (the time was one minute or less) |
| COc1ccc2nc(-n3nc(-c4ccc(O)c(S(=O)(=O)[O-])c4)n[n+]3-c3cc(S(=O)(=O)[O-])ccc3OC)sc2c1.[Na+] [Example 6] | – | ◯ (the time was one minute or less) |
| COc1ccc2nc(-n3nc(-c4ccccc4S(=O)(=O)[O-])n[n+]3-c3ccc(S(=O)(=O)[O-])cc3)sc2c1.[Na+] [Example 7] | – | ◯ (the time was one minute or less) |
| COc1ccc2nc(-n3nc(-c4cc(S(=O)(=O)[O-])cc(S(=O)(=O)O)c4)n[n+]3-c3cc(S(=O)(=O)O)ccc3OC)sc2c1 [Example 8] | – | ◯ (the time was one minute or less) |
| COc1ccc2nc(-n3nc(-c4cc(S(=O)(=O)O)cc(S(=O)(=O)O)c4)n[n+]3-c3ccc(OC)c(S(=O)(=O)[O-])c3)sc2c1 [Example 9] | – | ◯ (the time was one minute or less) |
| COc1ccc2nc(-n3nc(-c4ccc(S(=O)(=O)O)cc4S(=O)(=O)[O-])n[n+]3-c3ccc(C(=O)O)cc3OC)sc2c1 [Example 10] | – | ◯ (the time was one minute or less) |
| COc1ccc2nc(-n3nc(-c4cc(S(=O)(=O)[O-])cc(S(=O)(=O)O)c4)n[n+]3-c3cc(C(=O)O)ccc3OC)sc2c1 [Example 11] | – | ◯ (the time was one minute or less) |
| COc1ccc2nc(-n3nc(-c4ccc(S(=O)(=O)O)cc4S(=O)(=O)[O-])n[n+]3-c3ccc(OC)c(C(=O)O)c3)sc2c1 [Example 12] | – | ◯ (the time was one minute or less) |
| COc1ccc(S(=O)(=O)O)cc1-[n+]1nc(-c2ccc(S(=O)(=O)O)cc2S(=O)(=O)[O-])nn1-c1nc2cc3c(cc2s1)OCO3 [Example 13] | – | ◯ (the time was one minute or less) |
| COc1ccc(S(=O)(=O)O)cc1-[n+]1nc(-c2ccc(S(=O)(=O)O)cc2S(=O)(=O)[O-])nn1-c1nc2cc3c(cc2s1)OCCO3 [Example 14] | – | ◯ (the time was one minute or less) |
| COc1ccc(-[n+]2nc(-c3ccc(S(=O)(=O)O)cc3S(=O)(=O)O)nn2-c2nc3cc4c(cc3s2)OCO4)cc1S(=O)(=O)[O-] [Example 17] | – | ◯ (the time was one minute or less) |
| COc1ccc(-[n+]2nc(-c3ccc(S(=O)(=O)O)cc3S(=O)(=O)O)nn2-c2nc3cc4c(cc3s2)OCCO4)cc1S(=O)(=O)[O-] [Example 19] | – | ◯ (the time was one minute or less) |
| CCOc1ccc2nc(-n3nc(-c4ccc(S(=O)(=O)O)cc4S(=O)(=O)O)n[n+]3-c3ccc(OC)c(S(=O)(=O)[O-])c3)sc2c1 [Example 20] | – | ◯ (the time was one minute or less) |
| COc1ccccc1-[n+]1nc(-c2ccc(S(=O)(=O)O)cc2S(=O)(=O)[O-])nn1-c1nc2ccccc2s1 [compound 4, reference compound] | – | ◯ (the time was one minute or less) |
